Laboratory results published in publication PMC8170441.
These are yes or no findings as the source states them, for the method shown. Binding seen in cells or lysates may run through a third protein. A yes stands for co-enrichment or nearness to the bait. Other partners may have been found. For some assays here: Where a sequence is shown, tags or fusion partners need not be part of it.

Sequences of proteins named here, by UniProt entry; tags and fusion partners are left off. A change or cut given only in a name is not applied to a line headed by its entry. A line that says so, or that is headed by a name, gives the form on record, which may keep a tag or linker.
p97-E578Q-Strep (P55072, form named): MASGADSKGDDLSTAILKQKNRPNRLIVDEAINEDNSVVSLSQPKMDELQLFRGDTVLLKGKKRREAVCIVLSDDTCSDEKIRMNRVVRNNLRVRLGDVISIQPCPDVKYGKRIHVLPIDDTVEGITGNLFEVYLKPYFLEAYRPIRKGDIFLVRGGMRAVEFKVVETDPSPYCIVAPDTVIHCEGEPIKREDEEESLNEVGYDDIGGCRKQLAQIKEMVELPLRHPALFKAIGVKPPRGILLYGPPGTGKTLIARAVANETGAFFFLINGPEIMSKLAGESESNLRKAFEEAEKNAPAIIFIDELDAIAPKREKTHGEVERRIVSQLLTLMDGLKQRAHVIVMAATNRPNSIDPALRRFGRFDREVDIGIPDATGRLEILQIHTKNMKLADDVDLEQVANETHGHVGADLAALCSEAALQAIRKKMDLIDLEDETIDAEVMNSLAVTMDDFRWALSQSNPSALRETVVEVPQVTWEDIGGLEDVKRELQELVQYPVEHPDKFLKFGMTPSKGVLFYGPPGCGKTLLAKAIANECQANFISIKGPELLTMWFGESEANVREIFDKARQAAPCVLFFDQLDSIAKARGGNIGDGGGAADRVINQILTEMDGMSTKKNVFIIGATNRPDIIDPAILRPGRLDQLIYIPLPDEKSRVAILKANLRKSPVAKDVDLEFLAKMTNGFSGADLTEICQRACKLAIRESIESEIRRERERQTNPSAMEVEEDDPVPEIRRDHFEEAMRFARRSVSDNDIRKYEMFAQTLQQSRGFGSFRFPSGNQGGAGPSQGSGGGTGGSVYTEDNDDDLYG
UniProt Q92878: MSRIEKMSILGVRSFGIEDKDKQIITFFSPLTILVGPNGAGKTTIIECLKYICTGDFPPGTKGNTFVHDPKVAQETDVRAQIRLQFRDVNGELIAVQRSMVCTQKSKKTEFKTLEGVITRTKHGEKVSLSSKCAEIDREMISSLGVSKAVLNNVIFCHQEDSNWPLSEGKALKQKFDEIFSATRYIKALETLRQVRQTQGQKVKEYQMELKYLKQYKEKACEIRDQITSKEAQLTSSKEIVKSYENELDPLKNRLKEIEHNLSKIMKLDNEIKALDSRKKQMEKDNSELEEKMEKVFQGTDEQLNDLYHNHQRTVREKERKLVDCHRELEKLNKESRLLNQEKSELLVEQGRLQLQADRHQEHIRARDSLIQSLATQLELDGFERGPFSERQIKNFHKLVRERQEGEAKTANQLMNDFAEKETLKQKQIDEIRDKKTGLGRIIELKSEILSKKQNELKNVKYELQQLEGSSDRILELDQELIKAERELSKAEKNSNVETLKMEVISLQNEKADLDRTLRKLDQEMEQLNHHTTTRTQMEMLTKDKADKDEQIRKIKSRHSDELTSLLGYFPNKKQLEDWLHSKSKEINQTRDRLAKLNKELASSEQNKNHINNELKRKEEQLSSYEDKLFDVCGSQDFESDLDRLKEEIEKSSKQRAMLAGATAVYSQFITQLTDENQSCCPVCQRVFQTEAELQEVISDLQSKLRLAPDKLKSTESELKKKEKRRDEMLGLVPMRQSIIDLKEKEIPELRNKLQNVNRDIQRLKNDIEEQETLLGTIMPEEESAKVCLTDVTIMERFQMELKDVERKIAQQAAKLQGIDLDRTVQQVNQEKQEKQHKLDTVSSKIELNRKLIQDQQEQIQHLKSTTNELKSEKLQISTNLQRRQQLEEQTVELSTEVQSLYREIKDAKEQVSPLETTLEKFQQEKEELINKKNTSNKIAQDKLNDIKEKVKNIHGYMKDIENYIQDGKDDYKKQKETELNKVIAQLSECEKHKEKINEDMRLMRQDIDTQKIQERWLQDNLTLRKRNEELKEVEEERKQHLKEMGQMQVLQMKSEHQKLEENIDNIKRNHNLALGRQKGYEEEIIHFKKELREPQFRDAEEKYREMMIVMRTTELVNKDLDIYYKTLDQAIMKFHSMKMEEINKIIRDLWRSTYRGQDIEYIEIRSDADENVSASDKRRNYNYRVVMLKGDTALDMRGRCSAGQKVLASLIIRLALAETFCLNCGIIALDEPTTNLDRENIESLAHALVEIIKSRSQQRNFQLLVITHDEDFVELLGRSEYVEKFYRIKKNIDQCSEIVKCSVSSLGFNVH

Columns and labels:
[1] = target: T1, HA-MRE11 (UniProt P49959); test: affinity purification with mass spectrometry; HA-MRE11 pulled down with HA-conjugated magnetic beads from lysate of transfected T24 cells (5 Gy IR, 4 h recovery); washes with 0.5 M NaCl, elution with HA peptide; MASCOT
T1 sequence: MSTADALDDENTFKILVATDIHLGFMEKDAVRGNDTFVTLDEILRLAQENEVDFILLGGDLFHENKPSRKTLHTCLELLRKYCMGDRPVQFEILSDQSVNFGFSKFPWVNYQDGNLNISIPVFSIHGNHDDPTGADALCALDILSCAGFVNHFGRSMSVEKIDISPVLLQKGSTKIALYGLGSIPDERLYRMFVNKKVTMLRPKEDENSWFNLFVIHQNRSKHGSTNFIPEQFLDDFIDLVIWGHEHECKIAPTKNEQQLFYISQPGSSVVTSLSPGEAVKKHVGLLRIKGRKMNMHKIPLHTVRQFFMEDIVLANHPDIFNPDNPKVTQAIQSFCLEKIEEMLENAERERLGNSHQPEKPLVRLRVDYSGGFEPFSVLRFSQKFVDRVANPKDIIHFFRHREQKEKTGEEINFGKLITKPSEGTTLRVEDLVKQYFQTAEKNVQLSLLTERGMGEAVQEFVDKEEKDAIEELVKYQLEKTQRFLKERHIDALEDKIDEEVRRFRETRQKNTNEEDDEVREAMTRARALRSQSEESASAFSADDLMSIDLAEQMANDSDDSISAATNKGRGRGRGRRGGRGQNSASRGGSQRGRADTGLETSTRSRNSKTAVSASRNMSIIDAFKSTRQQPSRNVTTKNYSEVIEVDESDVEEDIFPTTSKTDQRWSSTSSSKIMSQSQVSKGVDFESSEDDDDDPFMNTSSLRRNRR

[2] = target: p97-E578Q-Strep (dominant-negative, substrate-trapping p97 variant) (UniProt P55072); test: affinity purification with mass spectrometry; triplex SILAC; DOX-induced p97-E578Q-Strep pulled down with Strep-Tactin beads from benzonase-treated nuclear/chromatin fractions of HEK293 cells after 10 Gy IR, recovery over 8 h

| binding [2] | Substance | binding [1] |
| --- | --- | --- |
|  | p97 (endogenous, T24) (from UniProt P55072 1-806) (enzyme) | binds |
| binds | RAD50 (endogenous, HEK293) (from UniProt Q92878 1-1312) |  |
